Assay results taken from patent US20100028953.

By UniProt entry, the sequences of proteins in these tests, tags left out. Where a name states a change or a piece, a line headed by the entry shows the natural chain unless it says otherwise.
UniProt P00970: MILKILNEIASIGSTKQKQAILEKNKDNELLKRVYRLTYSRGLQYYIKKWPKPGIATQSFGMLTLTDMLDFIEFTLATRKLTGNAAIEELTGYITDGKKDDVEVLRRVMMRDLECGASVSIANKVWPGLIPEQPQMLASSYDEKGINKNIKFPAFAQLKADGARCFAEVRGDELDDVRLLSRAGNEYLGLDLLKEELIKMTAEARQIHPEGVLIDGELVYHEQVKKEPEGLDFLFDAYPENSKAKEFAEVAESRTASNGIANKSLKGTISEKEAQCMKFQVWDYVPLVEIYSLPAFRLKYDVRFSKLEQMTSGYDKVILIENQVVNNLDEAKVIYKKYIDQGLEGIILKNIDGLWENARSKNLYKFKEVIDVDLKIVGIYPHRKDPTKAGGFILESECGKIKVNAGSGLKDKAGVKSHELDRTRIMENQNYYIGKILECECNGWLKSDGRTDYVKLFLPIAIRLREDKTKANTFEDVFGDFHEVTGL

What was measured:
[1] = system: BccI restriction endonuclease; assay: enzyme reaction in vitro; settings: NEB buffer 1, purified recombinant protein, protein details: NEB
[2] = system: Nt.AlwI (N.Alw I) nicking endonuclease; assay: enzyme reaction in vitro; settings: multimer nicked to monomers; purified recombinant protein; protein details: NEB buffer 2 used; folded or branched DNA
[3] = system: MlyI restriction endonuclease; assay: enzyme reaction in vitro; settings: 66 nt oligo released from suicide cassette; 1 U/ul, NEB buffer 4, 37 C, 16 h; purified recombinant protein; protein details: NEB buffer 4 used; folded or branched DNA
[4] = target: T4 DNA ligase (Enterobacteria phage T4) (UniProt P00970); assay: activity assay; settings: 5'-phosphate; self-templated ligation to circle; 37 C, 30 min; purified recombinant protein; protein details: Fermentas; folded or branched DNA

GTTTGTTAAGATGGCAG (double strand) [Bcc I (+)-oligo hybridized to RC product 2]
activity on this sequence ([1]; most prominent cleavage with (+)-oligo, background in other lanes): active

GTCGATCCCTGCCATCTTAACAAACCCTCGACCTCAATGCTGCTGCTGTACTACTCTTATGCGATTACCGGGCTGGATCGACTCGGAATTTCTTCCGA [Rolling circle product 2 (multimer of SF86)]
activity on this sequence [2]: active
activity on this sequence [3]: active

CTGCCATCTTAACAAAC (double strand) [Bcc I (-)-oligo hybridized to RC product 1]
activity on this sequence ([1]; cleavage only with (-)-oligo, none with (+)-oligo or no oligo): active

GTCGATCCCTGCCATCTTAACAAACCCTCGACCTCAATGCTGCTGCTGTACTACTCTTATGCGATTACCGGGCTGGATCGACTCGGAATTTCTTCCGA [SF86 (oligonucleotide with suicide cassette)]
activity on this sequence [4]: active

For some assays here: For at least one entry, the source does not settle the construct or the ends of the probe.
